Article PMC11594608, “Sulfonamide-Based Inhibition of the β-Carbonic Anhydrase from A. baumannii, a Multidrug-Resistant Bacterium” (International Journal of Molecular Sciences, 2024)

Target: T1, βAbauCA (CanB) (Acinetobacter baumannii, UniProt A0A7U3Y636)
T1 construct: gene AB57_1063; oligomer not determined here
T1 sequence (A0A7U3Y636 1-204): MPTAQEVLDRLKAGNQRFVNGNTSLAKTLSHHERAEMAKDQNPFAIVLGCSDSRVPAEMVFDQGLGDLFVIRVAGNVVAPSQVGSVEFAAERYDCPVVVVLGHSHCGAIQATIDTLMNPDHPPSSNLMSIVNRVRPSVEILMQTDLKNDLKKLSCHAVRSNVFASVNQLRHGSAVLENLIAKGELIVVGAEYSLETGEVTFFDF
Test: stopped-flow CO2 hydrase assay
Assay type: biochemical
Conditions: read-out: KI (nM) ^a / βAbauCA

Nc1ccc(S(N)(=O)=O)cc1 [compound 2, 2]
Ki: 650 nM
